The list does not hold the whole screen: it is rich in T/C values a quarter to a half above the control, in often repeated tests (any T/C) and in doses without a T/C. Further doses and runs are listed elsewhere. T/C gives the treated animals as a percentage of the vehicle group. Some doses have a count of surviving animals in place of a T/C: the source files T/C as zero there, which appears to mark a toxic dose or a test without result, not a measured value. Some survivor counts are full or nearly so, which does not show that the dose was tolerated: survival well below the control is almost never listed, so the zero probably covers shortened survival too. Survivors were counted at the toxicity check, usually on the fifth day, unless a day is given; later deaths do not show. Schedule codes are those of the source, read here as Q, the interval in days (D) or hours (H), X, the number of doses. Some schedule codes hold Z or #, which are not explained here. Where survival is the endpoint, this PubChem deposit counts one and a half times the control or more as active, and values a quarter to a half above the control carry no call in these data; other NCI protocols may use other cut-offs.

The test has as its system L1210 leukemia ip in BDF1 mice, survival T/C. The test is described as follows: NCI In Vivo Anticancer Drug Screen. Data for tumor model L1210 Leukemia (intraperitoneal) in B6D2F1 (BDF1) mice. Particulars: T/C endpoint: mean survival time, higher T/C = longer survival.
The mark [1] stands for this setting: dose: 200.0 mg/kg/injection, schedule: Q04DX003 (ip), vehicle: saline.
[2] abbreviates: dose: 400.0 mg/kg/injection, schedule: Q04DX003 (ip), vehicle: saline.
Setting [3] is: dose: 100.0 mg/kg/injection, schedule: Q01DX009 (ip), vehicle: saline.
The mark [4] stands for this setting: dose: 400.0 mg/kg/injection, schedule: Q01DX009 (ip), vehicle: saline.

As to `O=COc1ccc([N+](=O)[O-])cc1`, the survivor count by setting is: under setting [1], 2 of 6; under setting [2], 1 of 6.
Regarding `CCCCCCCCCCCc1cc(=O)n(-c2ccccc2)n1C`, the survivor count (dose: 100.0 mg/kg/injection, schedule: Q04DX003 (ip), vehicle: saline with Tween-80) was 3 of 6 and the survivor count (dose: 400.0 mg/kg/injection, schedule: Q04DX003 (ip), vehicle: saline with Tween-80) is 3 of 6.
For the molecule `COc1ccc(/C=C2/CSC/C(=C/c3ccc(OC)c(OC)c3)C2=O)cc1OC`, the survivor count reads like this: under setting [3], 6 of 6; under setting [4], 6 of 6.
On to `OCC(O)CCBr` (stereo not drawn), for which the T/C under setting [4] is 130 % of control.
Regarding `ClCCN(CCCCCCN(CCCl)Cc1ccccc1)Cc1ccccc1`, the survivor count is recorded as 1 of 3 (dose: 10.0 mg/kg/injection, schedule: Q04DX002 (ip), vehicle: Klucel (hydroxypropylcellulose) (HPC)); 0 of 3 (dose: 20.0 mg/kg/injection, schedule: Q04DX002 (ip), vehicle: Klucel (hydroxypropylcellulose) (HPC)); 0 of 3 (dose: 40.0 mg/kg/injection, schedule: Q04DX002 (ip), vehicle: Klucel (hydroxypropylcellulose) (HPC)); 1 of 3 (dose: 100.0 mg/kg/injection, schedule: Q04DX002 (ip), vehicle: Klucel (hydroxypropylcellulose) (HPC)); 0 of 3 (dose: 200.0 mg/kg/injection, schedule: Q04DX002 (ip), vehicle: Klucel (hydroxypropylcellulose) (HPC)); 0 of 3 (dose: 400.0 mg/kg/injection, schedule: Q04DX002 (ip), vehicle: Klucel (hydroxypropylcellulose) (HPC)).
On to `CN(C)CCCN1c2ccc(O)cc2Sc2ccc(Cl)cc21`, for which the survivor count is listed as 5 of 10 (dose: 50.0 mg/kg/injection, schedule: Q01DX009 (ip), vehicle: other); 0 of 10 (dose: 100.0 mg/kg/injection, schedule: Q01DX009 (ip), vehicle: other); 6 of 6 (dose: 200.0 mg/kg/injection, schedule: Q04DX003 (ip), vehicle: saline with Tween-80).
For the molecule `CC(=O)[O][Sn]([c]1ccccc1)([c]1ccccc1)[c]1ccccc1`, the survivor count is listed as 6 of 6 (dose: 3.12 mg/kg/injection, schedule: Q04DX003 (ip), vehicle: saline); 1 of 6 (dose: 4.0 mg/kg/injection, schedule: Q01DX015 (ip), vehicle: saline); 3 of 6 (dose: 5.31 mg/kg/injection, schedule: Q01DX009 (ip), vehicle: saline with Tween-80); 2 of 6 (dose: 6.25 mg/kg/injection, schedule: Q04DX003 (ip), vehicle: saline); 3 of 6 (dose: 8.0 mg/kg/injection, schedule: Q01DX015 (ip), vehicle: saline); 0 of 6 (dose: 100.0 mg/kg/injection, schedule: Q04DX003 (ip), vehicle: acetone). Besides, the survivor count is, setting by setting: (dose: 200.0 mg/kg/injection, schedule: Q04DX003 (ip), vehicle: acetone) 0 of 6; (dose: 400.0 mg/kg/injection, schedule: Q04DX003 (ip), vehicle: acetone) 0 of 6.
Take `COc1ccc(CCN(C)C(C)C2C3CC4CC(C3)CC2C4)cc1OC` (stereo not drawn): the survivor count under setting [2] was 0 of 3.
As to `COC(CNCc1ccccc1)OC`, the survivor count (dose: 300.0 mg/kg/injection, schedule: Q01DX001 (ip), vehicle: steroid suspending solution) is 1 of 6.
As to `NC(N)=N/N=C/Cc1ccccc1`, the survivor count (dose: 125.0 mg/kg/injection, schedule: Q01DX Z (ip), vehicle: saline) is listed as 3 of 6; the survivor count (dose: 250.0 mg/kg/injection, schedule: Q01DX Z (ip), vehicle: saline) is listed as 0 of 6; the survivor count (dose: 500.0 mg/kg/injection, schedule: Q01DX Z (ip), vehicle: saline) is 0 of 6.
Turning to `CCN(CC)CCCNC(C)CCCN(CC)CC` (stereo not drawn), under “dose: 400.0 mg/kg/injection, schedule: Q04DX003 (ip), vehicle: water”, the survivor count is recorded as 3 of 6.
For the molecule `O=NN(CCCl)C(=O)N[C@H]1CCC[C@@H](O)C1`, the survivor count (dose: 133.0 mg/kg/injection, schedule: Q01DX001 (ip), vehicle: saline with Tween-80) is listed as 10 of 10 and the survivor count (dose: 200.0 mg/kg/injection, schedule: Q01DX001 (ip), vehicle: saline with Tween-80) is recorded as 8 of 10.
For `O=NN(CCCl)C(=O)Nc1ccc2c(c1)CCCC2`, the T/C runs as follows: (dose: 16.0 mg/kg/injection, schedule: Q01DX001 (ip), vehicle: carboxymethylcellulose (CMC)) 130 % of control; (dose: 55.0 mg/kg/injection, schedule: Q01DX001 (ip), vehicle: carboxymethylcellulose (CMC)) 142 % of control; (dose: 62.0 mg/kg/injection, schedule: Q01DX001 (ip), vehicle: carboxymethylcellulose (CMC)) 134 % of control. Besides, the survivor count is reported as 4 of 6 (dose: 375.0 mg/kg/injection, schedule: Q01DX001 (ip), vehicle: carboxymethylcellulose (CMC)); 2 of 10 (dose: 476.0 mg/kg/injection, schedule: Q01DX001 (ip), vehicle: carboxymethylcellulose (CMC)); 0 of 6 (dose: 500.0 mg/kg/injection, schedule: Q01DX001 (ip), vehicle: carboxymethylcellulose (CMC)); 0 of 6 (dose: 750.0 mg/kg/injection, schedule: Q01DX001 (ip), vehicle: carboxymethylcellulose (CMC)); 0 of 6 (dose: 1000.0 mg/kg/injection, schedule: Q01DX001 (ip), vehicle: carboxymethylcellulose (CMC)).
As for `O=[N+]([O-])n1cnnc1-c1ccccc1`, the survivor count by setting is: (dose: 100.0 mg/kg/injection, schedule: Q04DX003 (ip), vehicle: gum acacia) 5 of 6; (dose: 200.0 mg/kg/injection, schedule: Q04DX003 (ip), vehicle: gum acacia) 0 of 6; (dose: 400.0 mg/kg/injection, schedule: Q04DX003 (ip), vehicle: gum acacia) 0 of 6.
In the case of `CC(O)C1CCN(Cc2ccccc2)CC1` (stereo not drawn), the survivor count (dose: 400.0 mg/kg/injection, schedule: Q01DX001 (ip), vehicle: carboxymethylcellulose (CMC)) is on record as 1 of 6.
Regarding `O=[N+]([O-])c1cc(Cl)ccc1S(=O)(=O)F`, the survivor count (dose: 400.0 mg/kg/injection, schedule: Q04DX003 (ip), vehicle: carboxymethylcellulose (CMC)) is listed as 0 of 6.
For the molecule `CN(C)CCCn1nc(-c2ccccc2)oc1=O`, under “dose: 300.0 mg/kg/injection, schedule: Q01DX001 (ip), vehicle: saline”, the survivor count is recorded as 1 of 6.
With `CC(=O)NC(N)=S`, the survivor count (dose: 200.0 mg/kg/injection, schedule: Q04DX003 (ip), vehicle: Klucel (hydroxypropylcellulose) (HPC)) was 3 of 6.
Take `CCCC(N=Cc1ccccc1O)C(=O)O.CCCC(N=Cc1ccccc1O)C(=O)O.[Fe]` (stereo not drawn): the survivor count by setting is: under setting [3], 2 of 6; under setting [1], 2 of 6; under setting [2], 1 of 6.
Take `CCOc1ccn(C)c(=O)n1`: the survivor count (dose: 200.0 mg/kg/injection, schedule: Q01DX001 (ip), vehicle: saline) is on record as 1 of 4 and the survivor count (dose: 400.0 mg/kg/injection, schedule: Q01DX001 (ip), vehicle: saline) is reported as 0 of 4.
For the molecule `CCCc1cc(C(C)=O)c[n+](C2OC(COC(C)=O)C(OC(C)=O)C(OC(C)=O)C2OC(C)=O)c1` (stereo not drawn), under “dose: 200.0 mg/kg/injection, schedule: Q01DX005 (ip), vehicle: water”, the survivor count is reported as 3 of 6.

The values are drawn from PubChem BioAssay AID248 (DTP/NCI, 2004).
